# Measurements from PubChem BioAssay AID504444 (National Center for Advancing Translational Sciences (NCATS), 2011).
# Screen size: about 360,000 compounds; about 7,500 (2.1%) were called active. Inconclusive results, whose numbers are uncertain, are shown with a selection of clear calls. Calls follow the shape of the dose curve; as a rule, active = well fitted inhibition curve with a large enough effect; inconclusive = small, poorly fitted or top-dose-only effect, or effect the other way; inactive = flat fitted curve, though single readings scatter. Potencies of inconclusive entries are doubtful fits and often do not repeat.
# Assay: Nrf2 qHTS screen for inhibitors; also: nearly all actives have a fitted effect of over 60% in size
# Conditions: A549 ARE-Fluc reporter, luciferase luminescence, 18-24 h; activity change, negative = inhibition: at 46 µM (top of the series)
# Summary of the method: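 Nrf2 function is reported as luminescence of an ARE-controlled luciferase in A549 cells. Compounds were tested at several concentrations, and a CellTiter-Fluor read on the same wells flagged cytotoxicity.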
# % is scaled to controls: 0 for no effect and ±100 for the full control effect; potency is read from the fitted curve at half-maximal effect.
SMILES,"activity change, negative = inhibition",Potency
CCOC(=O)C1CCN(C(=O)COc2ccc(N(C)S(=O)(=O)c3ccc(C)cc3)cc2)CC1,inactive: -1.26%,–
COC(=O)c1ccc2c(=O)n(CCCCCC(=O)N3CCN(c4ccc(F)cc4)CC3)c(=O)[nH]c2c1,inactive: -11.3%,–
CCn1c(SCC(N)=O)nnc1-c1cc2c(C)nn(-c3ccccc3)c2s1,inactive: -25.4%,–
CS(=O)(=O)c1ccc(C(=O)Nc2ccc(S(=O)(=O)N3CCCCC3)cc2)cc1,–,"inconclusive: 16.4 µM [falling, partial curve]"
Cc1ccc(C)c(Cn2nnc3c(=O)[nH]c(C(=O)Nc4ccc(F)cc4)nc32)c1,–,"inconclusive: 7.31 µM [falling, partial curve, poor fit]"
COc1cc(/C=C2\CC/C(=C\c3cc(OC)c(O)c(OC)c3)C2=O)cc(OC)c1O,–,active: 16.4 µM
CCc1ccc(NC(=O)Cn2c(=O)n(CCCCC(=O)NCc3ccc4c(c3)OCO4)c(=O)c3ccccc32)cc1,inactive: -23.7%,–
CCOc1ccc(CN2CCN(C(=O)c3cccc4ccccc34)CC2)cc1,–,"inconclusive: 18.4 µM [falling, partial curve, poor fit]"
CC(Oc1cccc(Cl)c1)C(=O)Nc1cc(S(=O)(=O)N2CCCCC2)ccc1N1CCOCC1 (configuration not stated),–,"inconclusive: 23.1 µM [falling, single point]"
CCCCNc1c(-c2ccc(OC)c(SC3CCCCC3)c2)nc2cc(C)ccn12,–,"inconclusive: 29.1 µM [falling, single point]"
CCC1CCCCN1C(=O)CCCc1ccccc1 (configuration not stated),–,"inconclusive: 18.4 µM [activator, single point]"
COc1ccc(Nc2cccc3ccccc23)cc1,–,"inconclusive: 13 µM [activator, partial curve, poor fit]"
Cc1noc(C)c1CSc1nc2sc3c(c2c(=O)n1C)CCCC3,–,"inconclusive: 18.4 µM [falling, single point]"
COC(=O)/C(C#N)=C/c1c(N2CCN(c3cccc(Cl)c3)CC2)nc2c(C)cccn2c1=O,–,"inconclusive: 4.11 µM [falling, full curve]"
Cc1ccc(-n2ncc3c(=O)n(CC(N)=O)cnc32)cc1C,–,"inconclusive: 16.4 µM [activator, partial curve]"
COc1ccccc1S(=O)(=O)Cc1ccc(C(=O)NCc2ccc(Cl)cc2)o1,–,"inconclusive: 5.17 µM [falling, partial curve]"
Cc1cc(Oc2ccccc2)nc(SCC(=O)Nc2ccc(Cl)c(Cl)c2)n1,–,"inconclusive: 29.1 µM [falling, single point]"
O=C(Nc1cccc2ccccc12)OCc1ccccc1,–,"inconclusive: 20.6 µM [activator, partial curve]"
CCOC(=O)N1CCN(CC(=O)Nc2ccc([N+](=O)[O-])cc2C(=O)Nc2ccccc2F)CC1,inactive: -25.9%,–
C=CCC(Nc1ccccc1)c1cccc(OC)c1OC (configuration not stated),–,"inconclusive: 29.1 µM [activator, single point]"
COc1ccc(CNc2ncnc3sccc23)cc1,–,active: 10.3 µM

SMILES,"activity change, negative = inhibition",Potency
COCc1c(C(=O)N/N=C/c2c[nH]c3ccccc23)nnn1-c1nonc1N,–,"inconclusive: 29.1 µM [activator, single point]"
Cc1ccc(C)c(NC(=S)NCc2ccc3[nH]c4c(c3c2)CCCC4)c1,–,"inconclusive: 16.4 µM [falling, single point]"
CN1CCS/C1=C/C=C1\SC(=S)N(CC(=O)O)C1=O,inactive: -7.24%,–
CC(C)(C)OC(=O)N[C@@H](/C=C/c1ccccc1)C(=O)OC(C)(C)C,–,"inconclusive: 0.82 µM [falling, partial curve, poor fit]"
COc1ccccc1NC(=O)CN1CCN(c2ccc(Cl)cc2)CC1,–,"inconclusive: 0.0041 µM [activator, full curve, poor fit]"
Clc1ccc(OCc2noc(-c3ccsc3)n2)c(Cl)c1,–,"inconclusive: 18.4 µM [activator, partial curve]"
CC1CCC(=NNC(=O)c2ccccc2-n2cccc2)CC1 (configuration not stated),inactive: 17.3%,–
NC(=O)c1oc2ccc(Cl)cc2c1N,–,"inconclusive: 23.1 µM [falling, single point]"
Cc1ccc(Cn2nnc3c(=O)[nH]c(C4CCCN(S(=O)(=O)c5ccccc5F)C4)nc32)cc1 (configuration not stated),–,"inconclusive: 14.6 µM [falling, partial curve, poor fit]"
Clc1ccc(OCc2nn3c(-c4ccncc4)nnc3s2)cc1,–,"inconclusive: 23.1 µM [falling, single point]"
COc1ccc(CN(C)C(=O)CNC(=O)Cc2cccc3ccccc23)c(OC)c1OC,inactive: -6.7%,–
COCCNC(=O)C(c1ccco1)N(Cc1ccc(OC)cc1)C(=O)Cn1nnc2ccccc21 (configuration not stated),–,"inconclusive: 23.1 µM [activator, single point]"
Nc1ccc(O)c2c(=O)cc(-c3ccccc3Cl)oc12,–,"inconclusive: 18.4 µM [activator, partial curve, poor fit]"
O=C(NCCO)c1cc2ccccc2cc1O,–,"inconclusive: 29.1 µM [falling, single point]"
Cc1c(C)n(Cc2ccc(Cl)cc2)c2ccc(C(=O)NCCN3CCOCC3)cc12,–,"inconclusive: 23.1 µM [falling, partial curve, poor fit]"
Cc1csc(NC(=O)c2ccc(S(=O)(=O)N3CCCC3)cc2)n1,–,"inconclusive: 32.6 µM [falling, partial curve, poor fit]"
CCc1ccc2c(c1)C(=O)C(=O)N2CC(=O)Nc1ccc(NC(=O)c2ccccn2)cc1,–,"inconclusive: 7.31 µM [activator, partial curve]"
CNC(=S)n1cnc(N)n1,–,"inconclusive: 10.3 µM [falling, partial curve, poor fit]"
Cc1c(Cl)cccc1-n1ncc(C(=O)Nc2ccc(Br)cc2F)c1C1CCNCC1,inactive: 26.9%,–
COc1cc(OC)cc(-c2c(C#Cc3ccsc3)c3cc(-c4cccc5[nH]cc(C=O)c45)ccc3n2C)c1,–,"inconclusive: 14.6 µM [falling, partial curve, poor fit]"
Cc1ccc(C(=O)Nc2nnc(C)s2)o1,inactive: 9.35%,–

# A different layout for part of the listing above.
SMILES	activity change, negative = inhibition	Potency
CC1CCC(=NNC(=O)c2ccccc2-n2cccc2)CC1 (configuration not stated)	inactive: 17.3%	–
Cc1csc(NC(=O)c2ccc(S(=O)(=O)N3CCCC3)cc2)n1	–	inconclusive: 32.6 µM [falling, partial curve, poor fit]
Cc1c(Cl)cccc1-n1ncc(C(=O)Nc2ccc(Br)cc2F)c1C1CCNCC1	inactive: 26.9%	–
